We go through 55 molecules from PubChem BioAssay AID651804 (National Center for Advancing Translational Sciences (NCATS), 2012).

Amino acid sequences for entries named in this document (tags omitted). A change or cut given only in a name is not applied to a line headed by its entry.
UniProt P11308: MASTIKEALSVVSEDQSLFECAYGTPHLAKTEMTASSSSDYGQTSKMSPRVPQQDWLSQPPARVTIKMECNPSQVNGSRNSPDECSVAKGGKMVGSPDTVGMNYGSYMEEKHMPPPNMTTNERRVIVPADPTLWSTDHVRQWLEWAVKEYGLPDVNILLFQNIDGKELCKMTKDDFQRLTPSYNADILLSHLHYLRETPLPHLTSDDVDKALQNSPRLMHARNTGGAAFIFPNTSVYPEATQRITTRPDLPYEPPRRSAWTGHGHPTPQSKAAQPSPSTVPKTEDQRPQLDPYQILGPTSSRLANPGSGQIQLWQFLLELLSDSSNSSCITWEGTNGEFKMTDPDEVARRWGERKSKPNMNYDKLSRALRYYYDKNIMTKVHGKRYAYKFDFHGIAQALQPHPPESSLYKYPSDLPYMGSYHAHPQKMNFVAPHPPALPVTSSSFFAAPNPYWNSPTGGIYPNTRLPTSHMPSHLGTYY

The campaign covered roughly 1,200 compounds. About 20 (2%) were called active. Inconclusive results (about 23%) are left out. The call rests on the fitted dose curve; in most records, active means well fitted inhibition curve with a large enough effect; inconclusive means small, poorly fitted or top-dose-only effect; inactive means no such curve, though single readings can be large or run the other way. This is one part of the list.
Potency means the concentration at half of the fitted maximal effect.

The target of this assay is Transcriptional regulator ERG (Homo sapiens) (UniProt P11308). The assay can be described thus: qHTS for Small Molecule Inhibitors of the ERG Ets/DNA interaction: HTRF assay against cherry picks. The settings on record: His-ERG Ets domain with biotin-DNA; series mostly up to 154 µM; activity change, negative = inhibition: at the top concentration. The source says:
The Ets family of proteins is a family of ~30 conserved transcription factors defined by the presence of an ~85 amino acid domain referred to as the Ets domain, which mediates sequence-specific DNA binding to a core DNA element GGAA/T.The Ets family member ERG has been linked to several neoplasms. […] More extensive studies of the effects of over-expression of ERG in prostate cells have recently been carried out and have shown that over-expression of ERG results in increased invasion. […] We will carry out a high throughout screen to identify inhibitors of the interaction between ERG and DNA using a fluorescence polarization (FP) assay with a His-tagged ERG Ets domain and fluorescently-labeled DNA probes to develop small molecule inhibitors of this interaction as probes to test this hypothesis and lay the groundwork for the development of targeted therapies against ERG. This is the counterscreen against the cherry picks. NIH Molecular Libraries Probe Production Network [MLPCN] NIH Chemical Genomics Center [NCGC] Grant: NS066464 PI Name: John Bushweller, University of Virgina
2 ul of protein solution (200 nM ERG domain in 300mM KCl, 50mM Tris-HCl, 1mM EDTA, 1mM DTT, pH 7.5); 20 nl Control plate and compound library plate; 2 ul of 200 nM biotin-DNA; incubate for 10 min at RT; 1 ul of anti-His antibody conjugated to the long-life fluorescent cryptate donner […] (5ng/ul) and streptavidin conjugated to the acceptor compound […] (0.2 ng/ul) mix; incubate 10 min and measure FRET (Excitation = 320 nm, Emission = 615, 665 nm).
`COC(=O)c1c(C(=O)OC)c(-c2ccc(OC)cc2)n2c1CS(=O)C2` (stereo not given): the “activity change, negative = inhibition” value is inactive: -14.5%.
On the same count and under the same terms, the value for `CCCCCCCN=CC1=C(O)CC(c2ccccc2)CC1=O` (stereo not given) was inactive: -23.6%; that for `CC(C)COC(=O)/C(C#N)=C/c1c[nH]c2ccccc12` was inactive: -23.7%.
Consider `Nc1cccc2nc3ccccc3cc12`, for which the Potency was active: 50.1 µM.
Regarding `O=C(NCC1CCCO1)C1CC(=O)N(c2ccc(Cl)cc2)C1` (stereo not given), the “activity change, negative = inhibition” value was inactive: -22.3%.
`CCC(C)NCCCOc1ccc(C)cc1OC` (stereo not given): the “activity change, negative = inhibition” value is inactive: -6.42%.
`Cc1ccc(N(Cc2cc(=O)[nH]c3ccccc23)C(=O)CCl)c(C)c1`: the “activity change, negative = inhibition” value was inactive: -21%.
For the molecule `Cc1nn(C2CCS(=O)(=O)C2)c(Cl)c1/C=C/C(=O)OCC(=O)c1c[nH]c2ccccc12` (stereo not given), the “activity change, negative = inhibition” value was inactive: -21.3%.
Regarding `Nc1ccccc1-n1cccc1`, the “activity change, negative = inhibition” value is inactive: -10.2%.
As to `Nn1cnnc1N/N=C/c1cccc(Cl)c1Cl`, the “activity change, negative = inhibition” value was inactive: -27.5%.
Consider `COc1cc(OC)cc(C(=O)NCC(=O)OCc2csc(-c3ccccc3)n2)c1`, for which the “activity change, negative = inhibition” value is inactive: 34.1%.
The same measure, in the same setting: then `CCOc1ccc2nc(SCC(=O)c3ccc(C)s3)sc2c1`, with inactive: -15.2%; and `Cc1sc2nc(CSC(C)C(=O)Nc3ccc(C(N)=O)cc3)[nH]c(=O)c2c1C` (stereo not given), with inactive: -40.4%; and `Oc1ccc(NCc2ccccc2OCc2ccc(Cl)cc2)cc1`, with inactive: -27.3%.
With `COc1ccc(NC(=O)CSCC(=O)N(C)Cc2cccc(OC)c2OC)cc1`, the “activity change, negative = inhibition” value was inactive: -28.1%.
In the case of `CC(C)[C@H](NS(=O)(=O)c1ccccc1F)C(=O)NC1CCCCC1`, the “activity change, negative = inhibition” value was inactive: -23.2%.
As for `CCOC(=O)C1(CCc2ccccc2)CCN(C(=O)[C@@H]2C[C@@H](C)NC(=S)N2)CC1`, the “activity change, negative = inhibition” value was inactive: -27.4%.
`S=C(NCc1ccccc1)Nc1cccc(Cl)c1`: the “activity change, negative = inhibition” value was inactive: -18.9%.
Regarding `COc1ccc(C(c2c(C)n(C)n(-c3ccccc3)c2=O)c2c(C)n(C)n(-c3ccccc3)c2=O)c(OC)c1OC`, the “activity change, negative = inhibition” value is inactive: -25.1%.
For `CN(C)c1nc2n(c(=S)n1)CCS2`, the “activity change, negative = inhibition” value is inactive: -23.1%.
As for `COc1ccccc1C/C(N)=N/OC(=O)COc1ccc(C)cc1C`, the “activity change, negative = inhibition” value was inactive: -9.71%.
Regarding `O=C(COc1ccc(F)cc1)Nc1nnc(-c2ccncc2)s1`, the “activity change, negative = inhibition” value was inactive: -1.91%.
Regarding `CC(=O)Nc1ccc(NC(=O)Cn2c(=O)n(-c3ccccc3)c(=O)c3oc4ccccc4c32)cc1`, the “activity change, negative = inhibition” value is inactive: -10.4%.
In the case of `NC(=O)Nc1ccc(C(=O)OCC(=O)NC2CCCc3ccccc32)cc1` (stereo not given), the “activity change, negative = inhibition” value was inactive: -7.06%.
Still for that read-out and setting: the value for `COc1ccc(NC(=O)c2ccc(NC(=O)c3nc4nccc(C)n4n3)cc2)cc1` was inactive: -29%; that for `C/C(=N\NC(=O)c1ccc(CSc2nc(C)cc(C)n2)cc1)c1ccco1` was inactive: -18.3%; that for `C#CCn1c(CCNC(=O)c2ccco2)nc2ccccc21` was inactive: -16.9%.
Take `Cc1ccccc1OCc1nnc(SCC(=O)Nc2ccc(N3CCOCC3)c(Cl)c2)n1C`: the “activity change, negative = inhibition” value is inactive: -29.5%.
Same read-out and setting: then `CC(=O)N1CCN(c2nnc(-c3ccccc3)c3ccccc23)CC1`, with inactive: 2.55%.
Take `COCCNC(=O)CSc1nc2ccccc2c(=O)n1-c1cccc(OC)c1`: the “activity change, negative = inhibition” value was inactive: -25.3%.
As to `Fc1cccc(NC(=S)N2CCN(c3ccccn3)CC2)c1`, the “activity change, negative = inhibition” value is inactive: -15%.
`CCn1ccc2c(OCC(=O)Nc3ccc(C(C)=O)cc3)cccc2c1=O`: the “activity change, negative = inhibition” value was inactive: -14.2%.
As to `CCN1CCN(CCCNC(=O)C2CCN(c3nnc(-n4cccc4)s3)CC2)CC1`, the “activity change, negative = inhibition” value was inactive: -26.9%.
Still for that read-out and setting: then `CCC(Sc1nccn1C)C(=O)Nc1ccc(Cl)cn1` (stereo not given), with inactive: 5.25%; and `C/C(=N\NC(=O)c1cc(-c2ccc(Cl)s2)[nH]n1)c1ccncc1`, with inactive: -18.7%; and `COc1ccc(CNC(=O)c2cccnc2SC)cc1OC`, with inactive: -28.2%.
For the molecule `COc1ccc(-c2nc3ccccc3c(=O)[nH]2)cc1`, the “activity change, negative = inhibition” value is inactive: -7.06%.
As to `CC[C@]12c3[nH]c4ccccc4c3CCN1C(=O)C(CC(=O)NCc1cccc(C(F)(F)F)c1)C[C@@H]2C(=O)N1CCN(C(=O)C2CC2)CC1` (stereo not given in full), the “activity change, negative = inhibition” value was inactive: -22.7%.
As to `Cn1c(CNC(=O)CNC(=O)c2ccc(C(C)(C)C)cc2)cc(=O)n(C)c1=O`, the “activity change, negative = inhibition” value was inactive: 10.8%.
Turning to `Cc1ccc(S(=O)(=O)NC2(C(F)(F)F)C(=O)Nc3c2c(=O)[nH]c(=O)n3-c2ccccc2)cc1` (stereo not given), the “activity change, negative = inhibition” value was inactive: -24.5%.
Same read-out and setting: then `CCCC1OC23CCCCC2C(C#N)(C#N)C1(C#N)C(=N)O3` (stereo not given), with inactive: -12.7%.
As to `Cc1ccc(NC(=O)COC(=O)CCc2ccccc2)cc1S(=O)(=O)N1CCOCC1`, the “activity change, negative = inhibition” value is inactive: 6.05%.
For the molecule `Cc1onc(C(=O)NCc2ccccn2)c1[N+](=O)[O-]`, the “activity change, negative = inhibition” value was inactive: -24.5%.
Still for that read-out and setting: the value for `S=C(NCc1ccco1)N1CCN(c2ccccn2)CC1` was inactive: -8.01%; that for `CCc1ccc2oc(C(=O)NCC(c3ccc(Cl)cc3)N3CCOCC3)c(C)c2c1` (stereo not given) was inactive: -10.3%.
Same read-out and setting: the value for `O=C(NCc1cccnc1)c1ccccc1-c1nc(-c2ccccc2)no1` was inactive: -23.1%; that for `COc1ccc(/C=N/Nc2cc(N3CCOCC3)ncn2)c(OC)c1` was inactive: -14.2%.
Regarding `CCCCNc1c2c3c(cccc3n(C)c1=O)C(=O)c1ccccc1-2`, the “activity change, negative = inhibition” value is inactive: -28.4%.
The same measure, in the same setting: the value for `COc1cccc2c1cc1c(=O)n(CC(=O)N3CCCC3)nc(C)n12` was inactive: -24.9%; that for `Cc1ccccc1OCc1nc(-c2ccc(NC(=O)c3ccc4c(c3)OCO4)cc2)no1` was inactive: 40.8%; that for `CCC(C)NC(=O)Cn1cc(S(=O)(=O)N2CCCC2)c(S(=O)(=O)N2CCCC2)c1` (stereo not given) was inactive: 2.12%.
In the case of `CCOC(=O)C1=C(CN2CCCCC2)NC(=O)NC1c1cc(C)ccc1C` (stereo not given), the “activity change, negative = inhibition” value was inactive: -12.9%.
For the molecule `CCOC(=O)N1CCC(NC(=O)c2sc3nc4n(c(=O)c3c2C)CCCC4)CC1`, the “activity change, negative = inhibition” value is inactive: -4.83%.
The same measure, in the same setting: the value for `CC(C)C(NC(=O)CCNC(=O)c1ccc(C(C)(C)C)cc1)c1nc2ccccc2[nH]1` (stereo not given) was inactive: -19.4%.
Consider `COc1ccc(OC)c(NC(=O)c2ccc(CN3CCc4ccccc4C3)cc2)c1`, for which the “activity change, negative = inhibition” value was inactive: -17.3%.
